Assay results from PubChem BioAssay AID504834 (National Center for Advancing Translational Sciences (NCATS), 2011).
Out of some 320,000 compounds screened, about 22,000 (6.9%) were called active. The shares of active, inactive and inconclusive entries below differ from those in the screen. The call rests on the fitted dose curve; in most records, active means well fitted inhibition curve with a large enough effect; inconclusive means small, poorly fitted or top-dose-only effect, or another doubt; inactive means no such curve, though single readings can be large or run the other way. Potencies beside an inconclusive call are fits to weak or partial responses and may not hold up.

test: Primary qHTS for delayed death inhibitors of the malarial parasite plastid, 96 hour incubation; details: P. falciparum luciferase reporter growth; series mostly up to 28.7 µM; activity change, negative = inhibition: at the top concentration
Outline: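 Cell-based qHTS: luciferase-tagged P. falciparum in erythrocytes (2% hematocrit, 0.05% parasitemia final) incubated with compounds for 96 hours, 37 C, 5% CO2; luciferase detection reagent then added and luminescence measured.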
On the % scale 0 is the no-effect control and ±100 the full control effect; potency means the concentration at half of the fitted maximal effect.

SMILES	activity change, negative = inhibition	Potency
COc1ccc(C(=O)N2CCN(S(=O)(=O)c3cc(Cl)ccc3OC)CC2)cc1	inactive: -1.15%	
CC(=O)Nc1ccc(S(=O)(=O)CCC(=O)O)cc1		inconclusive: 18.5 µM [inhibitor, single point]
COC(=O)C1=C(C)N(c2ccc(OC)c(OC)c2)C(=O)/C1=C\c1ccco1	inactive: 7.27%	
CCc1nnc(NC(=O)CSc2ncc(-c3ccccc3)n2C)s1	inactive: 25.2%	
O=C(Nc1ccccc1C(=O)O)c1ccc(NC(=O)C2CCCCC2)cc1		inconclusive: 18.5 µM [inhibitor, single point]
O=C(COC(=O)c1ccc(F)cc1F)NC1CC1	inactive: -8.91%	
CC(=O)c1ccc(N2C(=O)[C@@H]3[C@H](C2=O)[C@H]2c4ccccc4C=NN2[C@@H]3C(C)=O)cc1	inactive: 12.6%	
COc1cccc(NC(=O)Nc2nc(-c3ccc(OC)c(OC)c3)cs2)c1		active: 11.7 µM
O=C(Nc1ccsc1C(=O)O)c1ccccc1	inactive: 35.7%	
COc1ccc(CN2CCN(C(=O)c3ccc(S(=O)(=O)N4CCCCCC4)cc3)CC2)cc1		inconclusive: 9.28 µM [inhibitor, partial curve]
O=C1CCCN1CCCNS(=O)(=O)c1ccc(F)c(F)c1		inconclusive: 3.29 µM [inhibitor, full curve]
Cc1[nH]c2ccc(C(=O)NCc3ccccn3)cc2c1C		inconclusive: 0.828 µM [inhibitor, full curve, poor fit]
C=COC(=O)CSc1nc(-c2cccs2)ccc1C#N	inactive: 28.4%	
O=P(O)(c1ccc(Cl)cc1)c1ccc(Cl)cc1		inconclusive: 0.0033 µM [inhibitor, full curve, poor fit]
NC(=O)COC(=O)CCSc1ccc(Cl)cc1	inactive: -38% [at 5.75 µM]	
COc1ccc(C(C(=O)NC(C)(C)C)N(Cc2cccs2)C(=O)CCC(=O)Nc2cc(C)on2)cc1 (centres undefined)		inconclusive: 11.7 µM [inhibitor, single point]
CCc1ccc(C(=O)C(C)OC(=O)Cn2[nH]c(=O)c3ccccc3c2=O)cc1 (centres undefined)		inconclusive: 18.5 µM [inhibitor, single point]
C=CCN1C(=O)C(CC(=O)O)SC1=Nc1ccc(C)cc1 (centres undefined)		inconclusive: 18.5 µM [inhibitor, single point]
Cc1cccc([C@@H]2[C@@H]3C(=O)N(Cc4ccccc4)C(=O)[C@@H]3[C@]3(CC(C)C)C(=O)N(c4cccc(Br)c4)C(=O)N23)c1		inconclusive: 4.15 µM [inhibitor, single point]
O=C(NC(=S)Nc1cccc(Cl)c1N1CCCCC1)c1cccs1		inconclusive: 8.28 µM [inhibitor, partial curve]
Cc1nc(CN2CCN(C(=O)NC3(c4ccccc4)CC3)CC2)cs1	inactive: 43%	
Cc1c(C(=O)Nc2nc3ccccc3[nH]2)oc2c(Cl)cccc12		inconclusive: 11.7 µM [inhibitor, partial curve, poor fit]
C#CCn1c2ccccc2c2nc3ccccc3nc21		inconclusive: 9.28 µM [inhibitor, partial curve, poor fit]

SMILES	activity change, negative = inhibition	Potency
COc1cc(O)c(C(CCN2CCCC2)c2ccc(N(C)C)cc2)c(OC)c1 (centres undefined)		active: 3.29 µM
Cc1csc(NC(=O)C2CC(=O)N(Cc3ccco3)C2)n1 (centres undefined)	inactive: 18.2%	
CCCOc1ccc(/C(O)=C2/C(=O)C(=O)N(c3cc(C)on3)C2c2ccc(C(=O)OC)cc2)cc1 (centres undefined)	inactive: 9.14%	
O=C(O)/C(=C\c1cccc([N+](=O)[O-])c1)c1ccc(S(=O)(=O)N2CCCCC2)s1		inconclusive: 0.0415 µM [inhibitor, full curve, poor fit]
COc1ccccc1N1CCN(C(=O)CCCCn2c(=O)[nH]c3ccsc3c2=O)CC1	inactive: -14%	
Cc1onc(-c2ccccc2)c1C(=O)OCC(=O)N(CC(C)C)c1c(N)n(Cc2ccccc2)c(=O)[nH]c1=O		inconclusive: 1.04 µM [inhibitor, full curve]
O=C1/C(=C/c2ccncc2)SC(=S)N1C1CCCCC1		inconclusive: 10.4 µM [inhibitor, single point]
Cc1ccc(S(=O)(=O)N(C)C)cc1NC(=S)Nc1cccc2ccccc12	inactive: -2.11%	
CCN1CCN(c2nc(Nc3cccc(F)c3)nc(N)c2[N+](=O)[O-])CC1		inconclusive: 16.5 µM [inhibitor, partial curve, poor fit]
CC1Cc2ccccc2N1C(=O)CN1CCN(S(=O)(=O)c2cccs2)CC1 (centres undefined)		inconclusive: 18.5 µM [inhibitor, single point]
Nc1cccc(N2C(=O)c3cccc4c(N)ccc(c34)C2=O)c1	inactive: 4.52%	
N#C/C(=C/c1ccc(-c2ccccc2[N+](=O)[O-])o1)C(N)=O		inconclusive: 4.65 µM [inhibitor, partial curve]
CC(C)Oc1ccc(C(=O)Nc2nnc(C3=COCCO3)o2)cc1		inconclusive: 20.8 µM [inhibitor, single point]
NC(=O)c1nsc(C(=O)N(c2cccc(F)c2)C(C(=O)NC2CCCC2)c2ccco2)c1N (centres undefined)	inactive: 15.2%	
CSCC[C@H](NC(=O)C1=NN(c2c(F)c(F)cc(F)c2F)C(=O)CC1)c1nc2ccccc2[nH]1		inconclusive: 18.5 µM [inhibitor, single point]
Cc1ccc(S(=O)(=O)CCC(=O)OCC(=O)Nc2cc(C)on2)cc1		inconclusive: 11.7 µM [inhibitor, single point]
CNc1ccccc1NC(=O)C1CCCN1C(=O)OCc1ccccc1 (centres undefined)		inconclusive: 18.5 µM [inhibitor, single point]
O=C(OCC(=O)N1CCN(C(=O)COC(=O)c2ccc(O)cc2O)CC1)c1ccc(O)cc1O		inconclusive: 9.28 µM [inhibitor, partial curve, poor fit]
Cc1ccc(NC(=O)COC(=O)CCC(=O)c2cccs2)c(Br)c1	inactive: 23.2%	
Cc1ccc(S(=O)(=O)N2CCN(C(=O)COC(=O)c3c(C)noc3C)CC2)c(C)c1		inconclusive: 18.5 µM [inhibitor, partial curve, poor fit]
Cn1c(CSCc2ccc(F)cc2)nnc1SCC(=O)N1CCN(c2ccccc2)CC1		inconclusive: 5.22 µM [inhibitor, partial curve]
C/C(=N\NC(=O)C1(C)CC1(Br)Br)c1ccc([N+](=O)[O-])cc1 (centres undefined)		inconclusive: 18.5 µM [inhibitor, single point]
CC(C)N1CCc2c(sc(NC(=O)CN3C(=O)c4ccccc4C3=O)c2C(N)=O)C1	inactive: -35.4% [at 1.15 µM]	

SMILES	activity change, negative = inhibition	Potency
COc1ccc(CNC(=O)CN=C2NC(=O)C(c3ccccc3)(c3ccccc3)N2)cc1	inactive: 21.5%	
Nc1cccc(-c2cc(-c3ccccc3)nc(-c3cccc(N)c3)n2)c1		active: 10.4 µM
CCN1CCN(S(=O)(=O)c2ccc(Cl)c(C(=O)N(C)CCOc3ccc(Cl)cc3)c2)CC1		inconclusive: 16.5 µM [inhibitor, partial curve, poor fit]
N/N=C1\CCCc2c1[nH]c1ccc([N+](=O)[O-])cc21	inactive: 108%	
O=C(N/N=C\c1ccc([N+](=O)[O-])o1)C1COc2ccccc2O1 (centres undefined)	inactive: -18.2%	
CCOc1ccccc1OCC(=O)Nc1cccc(S(=O)(=O)NC2=NCCCCC2)c1		inconclusive: 14.7 µM [inhibitor, partial curve, poor fit]
CCC(CC)NC(=O)C1CCN(c2ccc(S(=O)(=O)N3CCOCC3)cc2[N+](=O)[O-])CC1		inconclusive: 7.38 µM [inhibitor, partial curve, poor fit]
Cc1ccc(NC(=O)C(=O)NCCCN2CCCC2=O)cc1	inactive: 184%	
C#CCSc1n[nH]c(-c2ccco2)n1	inactive: 24.9%	
Cc1ccc(S(=O)(=O)NCc2ccco2)cc1C	inactive: 23.1% [at 5.75 µM]	
Cc1ccc(-c2nnn(CCC(=O)N3CCCCC3C)n2)cc1 (centres undefined)		inconclusive: 11.7 µM [inhibitor, single point]
CCn1cc(Cl)c(C(=O)Nc2cccc(CN3CCOCC3)c2)n1	inactive: -5.13%	
COc1ccc(/C(N)=N/OC(=O)N2CCOCC2)cc1		inconclusive: 18.5 µM [inhibitor, single point]
O=C(Cn1cnc2ccccc2c1=O)N1CCN(S(=O)(=O)c2ccc(F)cc2)CC1		inconclusive: 20.8 µM [inhibitor, single point]
Cc1ccc(S(=O)(=O)N2CCCCC2CCNC(=O)C(=O)NCCc2ccco2)cc1 (centres undefined)		inconclusive: 18.5 µM [inhibitor, single point]
CC(=O)N1CCc2cc(S(=O)(=O)NC(CC(C)C)C(=O)Nc3cc(C(=O)O)ccc3C)ccc21 (centres undefined)		active: 0.294 µM
Cc1ccsc1C(=O)Nc1ccccc1N1CCCC1		inconclusive: 0.828 µM [inhibitor, partial curve, poor fit]
CCN1C(=O)c2ccccc2S(=O)c2ccc(C(=O)N3CCN(C(=O)c4ccco4)CC3)cc21 (centres undefined)		inconclusive: 10.4 µM [inhibitor, single point]
O=c1[nH]c2cccc(Cl)c2n(CCNc2ncc(C(F)(F)F)cc2Cl)c1=O		inconclusive: 18.5 µM [inhibitor, single point]
Cc1ccc(-n2c(SCC(=O)Nc3nccs3)nc3c(c2=O)SCC3)cc1		inconclusive: 9.28 µM [inhibitor, partial curve]
Clc1ccc(C(Cn2ccnc2)OCc2ccsc2Cl)c(Cl)c1 (centres undefined)		active: 6.75 µM
COC(=O)c1ccc(Cl)cc1N(Cc1c(F)cccc1Cl)S(C)(=O)=O		inconclusive: 0.329 µM [inhibitor, full curve, poor fit]
O=C(Nc1ccc(N2CCCCCC2)cc1)c1cccc(S(=O)(=O)N2CCOCC2)c1		active: 10.4 µM

Random excerpt: 4 records from the list
SMILES	activity change, negative = inhibition	Potency
CCOc1ccccc1OCC(=O)Nc1cccc(S(=O)(=O)NC2=NCCCCC2)c1		inconclusive: 14.7 µM [inhibitor, partial curve, poor fit]
O=C(Cn1cnc2ccccc2c1=O)N1CCN(S(=O)(=O)c2ccc(F)cc2)CC1		inconclusive: 20.8 µM [inhibitor, single point]
Cc1ccc(-n2c(SCC(=O)Nc3nccs3)nc3c(c2=O)SCC3)cc1		inconclusive: 9.28 µM [inhibitor, partial curve]
COc1ccc(CNC(=O)CN=C2NC(=O)C(c3ccccc3)(c3ccccc3)N2)cc1	inactive: 21.5%	

Nothing new here: an excerpt of the list.
SMILES	activity change, negative = inhibition	Potency
Clc1ccc(C(Cn2ccnc2)OCc2ccsc2Cl)c(Cl)c1 (centres undefined)		active: 6.75 µM
COC(=O)c1ccc(Cl)cc1N(Cc1c(F)cccc1Cl)S(C)(=O)=O		inconclusive: 0.329 µM [inhibitor, full curve, poor fit]
